Test results published in PMC11705650.

Sequences of proteins named here, by UniProt entry; tags and fusion partners are left off.
UniProt P08670: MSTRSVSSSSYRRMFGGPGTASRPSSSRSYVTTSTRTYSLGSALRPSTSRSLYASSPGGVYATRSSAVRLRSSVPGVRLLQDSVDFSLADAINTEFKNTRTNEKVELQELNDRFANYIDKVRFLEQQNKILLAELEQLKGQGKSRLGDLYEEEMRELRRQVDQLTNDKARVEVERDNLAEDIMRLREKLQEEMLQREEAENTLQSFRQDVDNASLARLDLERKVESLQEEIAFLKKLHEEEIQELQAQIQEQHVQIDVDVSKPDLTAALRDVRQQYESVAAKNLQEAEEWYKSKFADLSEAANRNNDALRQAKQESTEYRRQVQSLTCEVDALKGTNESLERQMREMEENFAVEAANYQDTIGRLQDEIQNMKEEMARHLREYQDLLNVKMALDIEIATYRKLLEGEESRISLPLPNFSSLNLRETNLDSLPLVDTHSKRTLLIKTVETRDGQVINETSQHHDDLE

Target: T1, flag-labeled CCND3 (cyclin D3) (UniProt P30281)
T1 sequence: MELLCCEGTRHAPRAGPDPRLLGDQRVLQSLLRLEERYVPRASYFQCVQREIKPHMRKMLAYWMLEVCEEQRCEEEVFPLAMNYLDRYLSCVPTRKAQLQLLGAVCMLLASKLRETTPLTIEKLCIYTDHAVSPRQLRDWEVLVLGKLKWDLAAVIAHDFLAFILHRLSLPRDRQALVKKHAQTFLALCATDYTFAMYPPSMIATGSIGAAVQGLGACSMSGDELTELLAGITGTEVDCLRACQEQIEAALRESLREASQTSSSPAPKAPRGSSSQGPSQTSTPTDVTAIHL
Assay: affinity purification with mass spectrometry; lysate of A549-DDP cells expressing flag-labeled CCND3; Co-IP with anti-flag or anti-IgG antibody; bands that differed from the IgG group were cut from the Coomassie-stained gel and sent for LC-MS/MS

binding: binds
Substance: vimentin (from UniProt P08670 1-466)

These are yes or no findings as the source states them, for the method shown. Binding seen in cells or lysates may run through a third protein. Here binding means that the protein was enriched with, or labelled near, the bait; the list need not be complete. Where a sequence is shown, tags or fusion partners need not be part of it.
